Reference: patent publication US20130244255A1, “ANTIBODIES DIRECTED TO GPNMB AND USES THEREOF” (priority 2006, published 2013)
Some of these results come from one statement about several compounds together.

What was measured:
UACC-62 = experiment: Anti-GPNMB antibody mediated indirect cell killing (saporin secondary conjugate, colony count); format: cell-based; settings: antibody at 50 ng/mL with goat anti-human IgG-saporin 100 ng/well
Method: (§1) UACC-62, a GPNMB antigen expressing cell line, and TK10, a non-expressing cell line were plated onto flat bottom 96-well tissue culture plates (Becton Dickinson, Franklin Lakes, N.J., USA) at a density of 3000 cells per well. Once the cells reached ˜25% confluency, 100 ng/well of secondary antibody-toxin conjugate (goat anti-human IgG-saporin; Advanced Targeting Systems, San Diego, USA, HUM-ZAP; cat #IT-22) was added. Anti-GPNMB MAbs 2.10.2, 2.22.1, 1.15.1 or isotype control mAb (pK16.3) were added to each well at a final concentration of 10 or 50 μg/mL. An anti-EGFR monoclonal antibody (MS-269-PABX, NeoMarkers, Fremont, Calif., USA) was used as a positive primary antibody control. Chemotherapy reagent 5-FU at 600 uM was used as a positive reagent control. On day 5, the cells were trypsinized, transferred to 6-well tissue culture plates and incubated at 37° C. Plates were examined daily and between 8-10 days, all plates were Giemsa stained and colonies were counted.

TK10 = experiment: as above; format: cell-based; settings: antibody at 50 ng/mL with goat anti-human IgG-saporin 100 ng/well
Method: as §1, with “Anti-GPNMB MAbs 2.10.2, 2.22.1, 1.15.1 or isotype control mAb (pK16.3) were added to each well at a final concentration of 10 or 50 μg/mL.” left out

B1: 2.22.1: human anti-GPNMB antibody; VH SEQ ID NO: 164, VL SEQ ID NO: 173 (antibody, listed as Homo sapiens, V domains shown)
VH: QVQLEQSGPGLVKPSQNLSLTCTVSGGSISSGGYFWSWIRQHPGKGLEWIGYIYYSGNTYYNPSLKSRVTISVDTSKNQFSLKLSSVTAADTAVYYCARDYYYDTSGFSYRYDWYYGMDVWGQGTTVTVSSA
VL: DIQLTQSPSSLSASVGDRVTITCRASQGIRNDLGWYQQKPGKAPKRLIYAASSLQNGVPSRFSGSGSGTEFTLTISSLQPEDFATYYCLQHNTYPAFGQGTKVEIKR
killing of UACC-62 cells (UACC-62): over 70%
cell death in GPNMB negative TK10 cells (TK10): less than 5%
